The record followed here is publication PMC6614414.

The chains behind the UniProt entries cited, without tags or fusion partners.
UniProt Q96S59: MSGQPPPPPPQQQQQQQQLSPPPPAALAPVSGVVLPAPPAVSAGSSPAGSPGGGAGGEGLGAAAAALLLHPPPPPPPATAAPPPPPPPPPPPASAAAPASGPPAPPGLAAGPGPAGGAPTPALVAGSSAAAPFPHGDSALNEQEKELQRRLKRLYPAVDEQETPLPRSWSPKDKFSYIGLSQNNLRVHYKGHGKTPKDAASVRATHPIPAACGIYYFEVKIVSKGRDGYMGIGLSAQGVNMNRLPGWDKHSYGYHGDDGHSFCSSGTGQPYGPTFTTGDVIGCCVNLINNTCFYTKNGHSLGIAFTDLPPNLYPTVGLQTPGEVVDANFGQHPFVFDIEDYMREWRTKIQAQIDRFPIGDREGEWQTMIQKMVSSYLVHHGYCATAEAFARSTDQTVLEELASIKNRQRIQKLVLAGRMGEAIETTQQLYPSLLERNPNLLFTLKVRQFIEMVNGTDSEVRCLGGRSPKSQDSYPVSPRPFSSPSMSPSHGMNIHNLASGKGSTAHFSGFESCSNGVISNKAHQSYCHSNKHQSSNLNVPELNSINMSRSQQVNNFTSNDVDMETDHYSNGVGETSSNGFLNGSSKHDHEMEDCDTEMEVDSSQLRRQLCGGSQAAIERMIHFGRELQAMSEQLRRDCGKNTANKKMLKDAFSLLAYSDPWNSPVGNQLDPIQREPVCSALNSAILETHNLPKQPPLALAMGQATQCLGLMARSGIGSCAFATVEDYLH
UniProt Q8IUR7: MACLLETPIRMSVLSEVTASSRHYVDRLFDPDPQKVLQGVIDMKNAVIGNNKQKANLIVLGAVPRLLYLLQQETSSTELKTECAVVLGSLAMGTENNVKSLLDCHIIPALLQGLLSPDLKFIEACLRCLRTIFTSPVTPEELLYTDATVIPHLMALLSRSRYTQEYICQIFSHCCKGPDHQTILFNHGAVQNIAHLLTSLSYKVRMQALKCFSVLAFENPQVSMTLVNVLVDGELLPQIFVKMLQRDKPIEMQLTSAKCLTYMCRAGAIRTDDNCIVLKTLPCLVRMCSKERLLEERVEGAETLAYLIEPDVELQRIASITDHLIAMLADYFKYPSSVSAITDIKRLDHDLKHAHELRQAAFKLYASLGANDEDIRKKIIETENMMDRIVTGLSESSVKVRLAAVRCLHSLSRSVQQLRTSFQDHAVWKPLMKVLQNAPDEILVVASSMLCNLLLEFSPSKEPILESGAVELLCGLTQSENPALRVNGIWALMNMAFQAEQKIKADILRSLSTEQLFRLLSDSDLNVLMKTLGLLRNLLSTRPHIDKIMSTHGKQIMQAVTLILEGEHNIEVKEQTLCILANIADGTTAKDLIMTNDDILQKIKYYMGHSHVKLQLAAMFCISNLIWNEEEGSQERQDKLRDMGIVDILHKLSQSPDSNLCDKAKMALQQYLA
UniProt Q9H871: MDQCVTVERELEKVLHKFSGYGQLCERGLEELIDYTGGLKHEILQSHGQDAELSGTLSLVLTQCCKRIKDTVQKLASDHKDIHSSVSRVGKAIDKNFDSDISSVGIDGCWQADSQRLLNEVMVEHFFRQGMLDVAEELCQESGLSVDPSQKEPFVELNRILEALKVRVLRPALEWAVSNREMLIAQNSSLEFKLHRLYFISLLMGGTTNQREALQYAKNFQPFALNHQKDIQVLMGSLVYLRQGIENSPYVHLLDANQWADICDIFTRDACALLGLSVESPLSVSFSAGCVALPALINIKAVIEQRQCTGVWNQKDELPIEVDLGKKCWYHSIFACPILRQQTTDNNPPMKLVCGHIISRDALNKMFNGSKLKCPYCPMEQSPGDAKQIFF
UniProt Q9H7D7: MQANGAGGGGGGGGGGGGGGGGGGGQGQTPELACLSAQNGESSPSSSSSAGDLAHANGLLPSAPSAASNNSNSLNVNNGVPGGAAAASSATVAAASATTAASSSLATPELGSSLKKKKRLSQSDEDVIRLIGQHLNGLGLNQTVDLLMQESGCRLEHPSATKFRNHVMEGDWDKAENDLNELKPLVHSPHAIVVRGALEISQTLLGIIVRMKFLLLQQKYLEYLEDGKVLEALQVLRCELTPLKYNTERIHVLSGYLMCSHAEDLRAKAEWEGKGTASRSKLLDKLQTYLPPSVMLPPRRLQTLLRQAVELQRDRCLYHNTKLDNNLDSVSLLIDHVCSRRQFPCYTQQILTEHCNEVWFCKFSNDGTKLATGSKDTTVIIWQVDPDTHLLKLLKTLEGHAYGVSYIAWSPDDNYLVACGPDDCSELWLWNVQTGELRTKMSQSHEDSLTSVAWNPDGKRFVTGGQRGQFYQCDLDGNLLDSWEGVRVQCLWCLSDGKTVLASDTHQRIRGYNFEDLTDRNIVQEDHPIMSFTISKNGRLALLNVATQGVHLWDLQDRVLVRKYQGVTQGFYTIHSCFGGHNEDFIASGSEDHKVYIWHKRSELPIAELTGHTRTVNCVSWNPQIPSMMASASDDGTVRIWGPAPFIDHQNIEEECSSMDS

Results are given in words; binding and its absence hold for the method and conditions named. Binding seen in cells or lysates may run through a third protein. Some entries that bind do so weakly or less than the wild type.

In the test the target is Ran binding protein M (RanBPM) (human (endogenous in HEK293)) (UniProt Q96S59). In words: co-IP; HEK293 whole cell extracts adjusted to 0.25% NP-40, pre-cleared, RanBPM antibody overnight at 4 °C, Dynabeads protein G, washed three times in lysis buffer; Western blot; mouse IgG as negative control; also from RMND5A KO cells (Supplementary Fig. 4).

With “Armadillo Repeat Containing 8 isoform α (ARMC8α) (from UniProt Q8IUR7 1-673)”, the binding result was “binds”. To “Required For Meiotic Nuclear Division 5 Homolog A (RMND5A), endogenous (from UniProt Q9H871 1-391)” belongs “binds”; to “WD repeat-containing protein 26 (WDR26), endogenous (from UniProt Q9H7D7 1-661)”, “binds”.
